Test results taken from publication PMC4576175.
No constants are given. Whether binding was seen depends on the method and setting. Some entries that bind do so weakly or less than the wild type.

Amino acid sequences for entries named in this document (tags omitted).
UniProt P20226: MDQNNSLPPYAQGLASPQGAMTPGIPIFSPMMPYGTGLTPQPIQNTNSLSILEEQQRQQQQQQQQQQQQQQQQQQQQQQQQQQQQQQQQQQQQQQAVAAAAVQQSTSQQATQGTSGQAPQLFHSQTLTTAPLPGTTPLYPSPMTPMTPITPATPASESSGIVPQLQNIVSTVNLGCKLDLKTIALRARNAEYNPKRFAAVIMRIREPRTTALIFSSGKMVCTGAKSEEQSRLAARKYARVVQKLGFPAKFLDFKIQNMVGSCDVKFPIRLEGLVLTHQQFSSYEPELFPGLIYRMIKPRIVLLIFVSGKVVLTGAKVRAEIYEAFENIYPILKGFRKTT
UniProt Q7Z6Z7: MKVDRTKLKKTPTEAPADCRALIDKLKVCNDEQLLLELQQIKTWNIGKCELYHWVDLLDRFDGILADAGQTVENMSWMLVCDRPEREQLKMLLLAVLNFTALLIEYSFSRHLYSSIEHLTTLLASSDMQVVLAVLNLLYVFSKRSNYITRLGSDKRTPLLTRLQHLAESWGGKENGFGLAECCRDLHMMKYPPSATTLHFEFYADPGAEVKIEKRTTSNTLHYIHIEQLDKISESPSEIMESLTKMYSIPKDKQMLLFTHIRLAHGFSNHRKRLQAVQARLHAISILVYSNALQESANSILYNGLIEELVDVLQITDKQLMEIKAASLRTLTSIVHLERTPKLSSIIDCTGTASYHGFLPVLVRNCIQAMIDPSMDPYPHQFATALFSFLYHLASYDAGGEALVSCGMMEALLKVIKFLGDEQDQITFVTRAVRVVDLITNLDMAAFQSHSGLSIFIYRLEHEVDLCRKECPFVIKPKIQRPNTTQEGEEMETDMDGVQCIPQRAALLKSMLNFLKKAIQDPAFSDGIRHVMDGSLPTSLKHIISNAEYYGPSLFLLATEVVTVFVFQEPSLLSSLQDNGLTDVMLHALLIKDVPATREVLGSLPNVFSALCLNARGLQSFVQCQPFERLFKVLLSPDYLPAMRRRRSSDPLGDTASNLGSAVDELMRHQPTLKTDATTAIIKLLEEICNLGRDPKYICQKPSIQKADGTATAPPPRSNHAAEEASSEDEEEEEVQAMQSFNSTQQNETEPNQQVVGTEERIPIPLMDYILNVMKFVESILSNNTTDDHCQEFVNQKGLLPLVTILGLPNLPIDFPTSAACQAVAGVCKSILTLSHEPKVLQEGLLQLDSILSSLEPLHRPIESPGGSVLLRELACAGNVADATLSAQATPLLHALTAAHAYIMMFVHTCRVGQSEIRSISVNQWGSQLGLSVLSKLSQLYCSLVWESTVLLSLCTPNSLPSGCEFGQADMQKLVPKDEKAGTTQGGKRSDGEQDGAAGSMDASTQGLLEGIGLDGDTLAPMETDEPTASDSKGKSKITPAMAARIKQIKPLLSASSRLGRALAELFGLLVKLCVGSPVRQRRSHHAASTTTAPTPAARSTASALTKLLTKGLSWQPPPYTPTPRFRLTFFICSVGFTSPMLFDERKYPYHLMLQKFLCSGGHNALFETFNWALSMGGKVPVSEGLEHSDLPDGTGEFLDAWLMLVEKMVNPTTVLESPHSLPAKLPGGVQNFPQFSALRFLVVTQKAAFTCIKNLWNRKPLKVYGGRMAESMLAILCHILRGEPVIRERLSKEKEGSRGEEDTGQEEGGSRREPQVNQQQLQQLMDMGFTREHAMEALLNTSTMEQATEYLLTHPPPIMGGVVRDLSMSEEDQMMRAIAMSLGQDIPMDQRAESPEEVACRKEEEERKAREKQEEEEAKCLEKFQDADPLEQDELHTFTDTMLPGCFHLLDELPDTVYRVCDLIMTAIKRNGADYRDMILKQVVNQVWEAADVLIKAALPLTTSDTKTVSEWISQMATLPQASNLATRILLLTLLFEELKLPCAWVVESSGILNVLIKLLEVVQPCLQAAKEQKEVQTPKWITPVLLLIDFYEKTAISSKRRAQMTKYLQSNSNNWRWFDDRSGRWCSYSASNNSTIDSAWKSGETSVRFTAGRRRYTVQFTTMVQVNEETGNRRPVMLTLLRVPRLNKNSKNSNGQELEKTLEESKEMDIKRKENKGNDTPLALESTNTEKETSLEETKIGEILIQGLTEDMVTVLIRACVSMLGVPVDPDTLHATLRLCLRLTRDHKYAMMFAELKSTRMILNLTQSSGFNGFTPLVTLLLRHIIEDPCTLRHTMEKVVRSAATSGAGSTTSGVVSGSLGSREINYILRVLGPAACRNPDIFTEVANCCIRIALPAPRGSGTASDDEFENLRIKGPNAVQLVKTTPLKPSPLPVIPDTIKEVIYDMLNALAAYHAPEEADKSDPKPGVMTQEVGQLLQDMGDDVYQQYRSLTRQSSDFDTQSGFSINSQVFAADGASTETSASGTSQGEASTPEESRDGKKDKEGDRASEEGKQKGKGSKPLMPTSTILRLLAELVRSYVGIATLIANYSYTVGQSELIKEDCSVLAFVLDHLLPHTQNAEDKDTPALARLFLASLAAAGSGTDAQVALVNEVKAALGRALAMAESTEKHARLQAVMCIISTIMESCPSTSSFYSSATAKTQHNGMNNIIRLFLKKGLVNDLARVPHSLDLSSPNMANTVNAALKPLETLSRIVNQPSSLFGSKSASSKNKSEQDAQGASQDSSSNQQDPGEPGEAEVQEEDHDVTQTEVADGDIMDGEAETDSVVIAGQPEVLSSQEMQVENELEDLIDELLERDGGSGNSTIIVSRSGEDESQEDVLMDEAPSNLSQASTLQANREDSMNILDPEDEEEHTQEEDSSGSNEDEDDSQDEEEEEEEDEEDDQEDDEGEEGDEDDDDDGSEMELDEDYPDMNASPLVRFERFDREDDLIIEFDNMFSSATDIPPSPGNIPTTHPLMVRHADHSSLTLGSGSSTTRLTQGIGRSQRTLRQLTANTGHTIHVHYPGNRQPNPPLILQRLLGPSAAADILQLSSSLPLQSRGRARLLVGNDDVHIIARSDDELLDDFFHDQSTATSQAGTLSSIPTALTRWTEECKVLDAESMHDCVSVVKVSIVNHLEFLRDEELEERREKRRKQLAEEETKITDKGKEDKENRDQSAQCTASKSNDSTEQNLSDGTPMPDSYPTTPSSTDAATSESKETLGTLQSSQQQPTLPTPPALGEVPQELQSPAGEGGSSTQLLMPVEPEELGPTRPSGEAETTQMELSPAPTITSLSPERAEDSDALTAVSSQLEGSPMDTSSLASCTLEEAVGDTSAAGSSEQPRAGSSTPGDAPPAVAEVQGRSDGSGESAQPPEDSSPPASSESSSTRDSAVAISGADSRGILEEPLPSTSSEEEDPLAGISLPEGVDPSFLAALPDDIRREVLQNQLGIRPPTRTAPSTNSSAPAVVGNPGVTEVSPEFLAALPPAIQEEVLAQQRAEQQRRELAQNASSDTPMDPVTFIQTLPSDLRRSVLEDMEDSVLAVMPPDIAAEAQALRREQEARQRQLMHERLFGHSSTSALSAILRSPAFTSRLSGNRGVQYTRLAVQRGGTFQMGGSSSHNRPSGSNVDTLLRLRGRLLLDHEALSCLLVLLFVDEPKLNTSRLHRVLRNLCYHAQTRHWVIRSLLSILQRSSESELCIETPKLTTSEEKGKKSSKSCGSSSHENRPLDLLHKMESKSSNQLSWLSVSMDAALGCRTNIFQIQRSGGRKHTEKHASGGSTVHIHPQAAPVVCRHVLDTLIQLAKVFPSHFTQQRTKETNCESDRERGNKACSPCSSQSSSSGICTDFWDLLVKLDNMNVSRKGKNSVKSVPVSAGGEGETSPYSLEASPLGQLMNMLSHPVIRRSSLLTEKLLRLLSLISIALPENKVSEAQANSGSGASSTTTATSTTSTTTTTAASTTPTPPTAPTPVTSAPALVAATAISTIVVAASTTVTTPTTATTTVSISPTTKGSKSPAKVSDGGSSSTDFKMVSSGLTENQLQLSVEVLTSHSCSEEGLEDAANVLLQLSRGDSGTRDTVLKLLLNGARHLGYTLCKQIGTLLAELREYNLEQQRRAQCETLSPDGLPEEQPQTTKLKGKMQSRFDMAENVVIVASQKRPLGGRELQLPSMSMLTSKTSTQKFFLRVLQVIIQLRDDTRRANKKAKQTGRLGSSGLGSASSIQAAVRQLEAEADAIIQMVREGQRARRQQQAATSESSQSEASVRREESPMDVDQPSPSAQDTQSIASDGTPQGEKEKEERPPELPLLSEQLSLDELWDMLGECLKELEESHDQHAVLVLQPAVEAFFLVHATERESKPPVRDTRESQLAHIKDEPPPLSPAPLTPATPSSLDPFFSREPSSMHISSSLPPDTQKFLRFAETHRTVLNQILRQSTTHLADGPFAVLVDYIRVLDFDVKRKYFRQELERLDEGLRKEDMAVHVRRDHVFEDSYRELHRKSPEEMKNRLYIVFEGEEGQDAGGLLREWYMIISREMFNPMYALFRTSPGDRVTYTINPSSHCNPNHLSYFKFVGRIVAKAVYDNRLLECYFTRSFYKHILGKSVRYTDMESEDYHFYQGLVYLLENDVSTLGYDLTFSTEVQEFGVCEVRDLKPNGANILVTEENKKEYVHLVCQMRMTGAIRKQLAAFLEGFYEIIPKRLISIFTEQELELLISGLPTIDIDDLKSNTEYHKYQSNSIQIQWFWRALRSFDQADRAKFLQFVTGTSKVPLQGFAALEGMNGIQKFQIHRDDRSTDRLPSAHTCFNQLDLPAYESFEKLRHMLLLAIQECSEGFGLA

Biological target: GST-tagged full length (FL) TBP (UniProt P20226)
Test: pull-down; GST-tagged TBP (FL, DBD, TAD) used to pull down purified recombinant Huwe1; western blot with anti-Huwe1 and anti-GST antibodies; both purified

In the case of “Huwe1, purified recombinant His-tagged wild type (from UniProt Q7Z6Z7 1-4374) (enzyme)”, the binding is reported as “binds”.
